Measured values reported in patent publication US9987299B2, “Methods of improving RNAi in well-differentiated airway epithelia” (University of Iowa Research Foundation, priority 2014, dated 2018).
For at least one compound, name, drawing or mass did not settle the structure.

System: CFTR channel activity
Assay: Transepithelial short-circuit current and conductance in HAE
Type: cell-based, human
Settings: control epithelia with or without PAF, or PAF and NC1 treated cells; sequential addition of agents

C=C[C@@]1(C)CC(=O)[C@]2(O)[C@@]3(C)[C@@H](O)CCC(C)(C)[C@@H]3[C@H](O)[C@H](OC(C)=O)[C@@]2(C)O1 [forskolin]
cAMP-activated transepithelial short-circuit current (Isc and ΔIsc) and conductance (Gt): increased
